These are yes or no findings as the source states them, for the method shown. Some binding calls cover weakened binding; strength is not graded here.
Columns and labels:
[1] = biological target: T1, hTIGIT on the surface of 293F-hTIGIT-short #1B1 cells (human) (UniProt Q495A1); experiment: flow cytometry on 293F-hTIGIT-short #1B1 cells
T1 sequence (looked up): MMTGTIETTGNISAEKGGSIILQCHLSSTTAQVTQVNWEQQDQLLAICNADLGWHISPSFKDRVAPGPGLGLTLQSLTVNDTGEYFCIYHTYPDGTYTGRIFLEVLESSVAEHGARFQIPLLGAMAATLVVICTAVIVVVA

[2] = biological target: T1, hTIGIT on the surface of 293F-hTIGIT-short #1B1 cells (human); experiment: flow cytometry on cells expressing hTIGIT, method as in Example 3

B1: hTIGIT mouse-derived antibody m51C1 (antibody, V domains shown)
VH: QVQLQQSGAELVKPGASVKLSCKASGYTFTEYFIHWIKQKSGQGLEWIGWFYPGSGSIKYNERFKDKATLTADKSSSTVYMELSRLTSEDSAVYFCARHEMRYGNYVLDYWGQGTTLTVSS
VL: QAVVTQESALTTSPGETVTLTCRSSTGAVTTRNYANWVQEKPDHLFTGLIGGTNNRVPGVPARFSGSLIGDKAALTITGAQTEDEAIYFCGLWYSNHLVFGGGTKLTVLG
notes: Mouse monoclonal antibody from a hybridoma
binding [1]: binds

B2: hTIGIT humanized antibody h60H5 (antibody, human IgG1, V domains shown)
VH: QVQLVQSGAEVKKPGASVKVSCKTSGYTFTEYTMHWVRQAPGQRLEWIGGINPNNGGTSYNQKFQGRVTITVDTSASTAYMELSSLRSEDTAVYYCARSGNWDYAMDYWGQGTTVTVSS
VL: DIQMTQSPSSMSASVGDRVTITCKASQHVSTAVVWYQQKPGKAPKLLIYSASYRYTGVPDRFSGSGSGTDFTFTISSLQPEDIATYYCQQHYITPWTFGGGTKLEIKR
notes: also called 60H5-H2L1
binding [2]: binds

B3: hTIGIT humanized antibody h51C1 (antibody, human IgG1, V domains shown)
VH: QVQLVQSGAEVKKPGASVKVSCKASGYTFTEYFIHWVRQAPGQGLEWIGWFYPGSGSIKYNERFKDRVTLTADTSISTAYMELSRLRSDDTAVYYCARHEMRYGNYVLDYWGQGTTVTVSS
VL: QAVVTQEPSLTVSPGGTVTLTCRSSTGAVTTRNYANWVQQKPGQAPRGLIGGTNNRVPGVPARFSGSLLGGKAALTLSGAQPEDEAEYYCGLWYSNHLVFGGGTKLTVLG
notes: also called 51C1-H2L2
binding [2]: binds
